The text below walks through data of PubChem BioAssay AID2685 (National Center for Advancing Translational Sciences (NCATS), 2010).

The list shows a part of the results. The main result of the screen is listed elsewhere. These columns were measured beside it and carry no call. Compounds called inactive in the main read-out are mostly missing here. The note in brackets gives the kind of curve behind each potency; many fits are weak.

Broadly, the AC50 is the concentration giving half of the maximal activity seen. A high value points to weaker potency.

The nature of the assay: qHTS Assay for Lipid Storage Modulators in Drosophila S3 Cells.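 For cell number change: cells counted by Cell Tracker Red CMTPX staining in the red channel.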 As to conditions: BODIPY lipid droplet fluorescence, 18-24 h; for cell number change: measured here: cell count max response, cells fed with added oleic acid. The method, boiled down: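 Drosophila S3 cells loaded with oleic acid (400 uM, as added) and compounds at several concentrations; lipid droplets imaged by 488-nm laser-scanning cytometry, 500–530 nm intensity and object ratio to cell channel. Percent activity normalized to 20 uM Triacsin C.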
Background: Quantitative high-throughput screening tests each substance at several concentrations.

[1] abbreviates: measured here: cell number channel AC50, cells fed with added oleic acid.
[2] abbreviates: measured here: lipid fluorescence (Fed channel) AC50, cells fed with added oleic acid.

On to `Cc1ccc(-n2c(SCC(=O)NCc3cccs3)nnc2-c2ccoc2C)cc1`, for which the cell number change came to 48.9%. Also, the AC50 under setting [1] was 5.8 µM [rising, partial curve].
Take `Cc1ccc2[nH]c3c(=O)n(Cc4ccncc4)cnc3c2c1`: the cell number change stood at 94.4%. Moreover, the AC50 under setting [1] is 6.51 µM [rising, full curve]. Further, the AC50 under setting [2] is 3.66 µM [rising, partial curve].
Regarding `CCOC(=O)N1CCN(C(=O)c2cc(COc3c(F)cccc3F)on2)CC1`, the cell number change is -35.4%. In addition, the AC50 under setting [1] was 7.08 µM [falling, full curve, poor fit].
Turning to `CCN(C(=O)c1ccc2c(=O)n3c(nc2c1)CCCCC3)c1cc(OC)ccc1OC`, the cell number change was -33.1%. Also, the AC50 under setting [1] is 20.6 µM [falling, single point]. Moreover, the AC50 under setting [2] was 0.731 µM [falling, partial curve].
On to `Cc1ccc(C)c(N(C(=O)c2snc(C(N)=O)c2N)C(C(=O)NCC2CCCO2)c2ccc(C)o2)c1` (centres undefined), for which the cell number change was 10.4%. For the same molecule, the AC50 under setting [2] is 0.00461 µM [falling, full curve, poor fit].
In the case of `Oc1ccc(Cl)cc1C=NCCc1ccccc1`, the cell number change was -39.5%. Besides, the AC50 under setting [1] is 2.06 µM [falling, full curve]. Further, the AC50 under setting [2] is 0.116 µM [falling, full curve, poor fit].
For the molecule `O=C(NCCCO)c1cc([N+](=O)[O-])cc2c1C=Cc1ccccc1O2`, the cell number change came to 16.7%. For the same molecule, under setting [1], the concentration at half-maximal activity (AC50) is 6.51 µM [rising, single point]. Further, the AC50 under setting [2] is 6.51 µM [rising, single point].
Turning to `CC(=O)c1c(C)[nH]c(C(=O)Nc2ccc(F)cc2F)c1C`, the cell number change is -12.5%. Also, under setting [1], the AC50 is 2.31 µM [falling, partial curve].
As for `CC(=O)Nc1ccc(S(=O)(=O)NCC2CCC(C(=O)NC(C)c3ccc4c(c3)OCCO4)CC2)cc1` (centres undefined), the cell number change came to 5.64%.
As for `CCCN(CC(=O)Nc1ccc(F)c(F)c1F)C(=O)C1CC(=O)N(Cc2ccccc2)C1` (centres undefined), under setting [2], the AC50 was 20.6 µM [rising, single point].
With `O=C(CN1C(=O)C2CCCCC2C1=O)OCC(=O)c1ccc(F)cc1` (centres undefined), the cell number change came to 2.84%. Besides, under setting [1], the AC50 is 0.103 µM [rising, full curve, poor fit]. Also, the AC50 under setting [2] is 6.51 µM [rising, single point].
For `COc1ccc(-c2noc(CCCC(=O)NC3CCCC3)n2)cc1`, the cell number change came to 1.28%.
As to `COc1ccc(S(=O)(=O)N2CCN(C(=O)c3cccs3)CC2)cc1`, the cell number change was determined as 5.7%. For the same molecule, under setting [2], the AC50 was 9.2 µM [rising, single point].
For `CCCCOC(=O)c1[nH]c2c(c1C)C(=O)CC(c1cc(OC)c(OC)c(OC)c1)C2` (centres undefined), the AC50 runs as follows: under setting [1], 0.92 µM [rising, partial curve]; under setting [2], 1.3 µM [rising, partial curve].
Consider `COc1ccccc1OP(=O)(O)Oc1ccccc1OC`, for which the cell number change was -44.3%. The AC50 under setting [1] was 29.1 µM [falling, partial curve, poor fit].
Regarding `CCOC(=O)CCNC(C(=O)OCC)c1ccccc1` (centres undefined), the cell number change was -40%. Also, the AC50 under setting [1] was 25.9 µM [falling, single point]. Also, under setting [2], the AC50 was 23.1 µM [falling, partial curve].
On to `Cc1cc(C)cc(OCC(=O)Nc2ccc(-n3cnnn3)cc2)c1`, for which the cell number change was -7.91%. Further, the AC50 under setting [2] was 7.31 µM [rising, partial curve, poor fit].
Turning to `COc1ccc(NC(=O)NCCCN2CCCC2=O)cc1`, the cell number change was -9.68%. Further, the AC50 under setting [2] is 16.4 µM [falling, partial curve, poor fit].
As for `CCc1ccc(N2CN(CCc3ccccc3)CNC2=S)cc1`, the cell number change worked out at 4.04%. The AC50 under setting [2] was 0.651 µM [falling, single point].
As for `CNC(=S)NNC(=O)c1sccc1OCc1ccccc1`, the cell number change was 137%. In addition, under setting [1], the AC50 is 23.1 µM [rising, single point].
Turning to `CCS(=O)(=O)N1Cc2ccccc2CC1C(=O)Nc1nc2ccc(C)cc2s1` (centres undefined), the cell number change was -66.7%. The AC50 under setting [2] was 1.3 µM [rising, full curve].
For the molecule `Cc1ccc(S(=O)(=O)n2nc(OC(=O)c3ccccc3C)cc2N)cc1`, the cell number change was 8.33%.
Regarding `CC(C)Cn1c(SCC(=O)N2CCN(C(=O)c3ccco3)CC2)nc2ccccc2c1=O`, the cell number change is 54.6%. In addition, the AC50 under setting [2] was 3.26 µM [rising, single point].
On to `COc1cc2c(-c3ccc(O)cc3)nc3c(c(C)nn3-c3ccccc3)c2cc1OC`, for which the cell number change was -31.7%. The AC50 under setting [1] was 29.1 µM [falling, single point]. Also, the AC50 under setting [2] is 7.31 µM [falling, partial curve, poor fit].
Regarding `N#Cc1ccc(S(=O)(=O)NCC(=O)OCC(=O)NCCc2ccccc2)cc1`, the cell number change was determined as 38.3%. For the same molecule, the AC50 under setting [1] was 18.4 µM [rising, partial curve, poor fit].
As to `O=C(CCn1nnc2ccccc21)Nc1nnc(-c2ccccc2F)s1`, the cell number change was -9.29%.
On to `COc1cccc(C(=O)O/N=C(\N)c2ccccn2)c1`, for which the cell number change worked out at 46%. For the same molecule, the AC50 under setting [1] was 8.2 µM [rising, partial curve, poor fit].
As for `CCN(CC)CCNC(=O)NC1CCCCC1`, the cell number change was -16.7%. Also, the concentration at half-maximal activity (AC50) under setting [2] was 5.17 µM [falling, full curve].
On to `CCCCN(CC)S(=O)(=O)c1ccc(C(=O)Nc2nnc(-c3ccccc3Cl)o2)cc1`, for which the AC50 under setting [1] was 1.46 µM [rising, partial curve] and the AC50 under setting [2] was 1.3 µM [rising, full curve].
In the case of `Cc1cnc(NC(=O)CN2C(=O)C3CC=CCC3C2=O)s1` (centres undefined), the cell number change was 3.41%.
As to `O=C(NCc1cccnc1)/C(=C\c1ccc(-c2ccc(Cl)c(Cl)c2)o1)S(=O)(=O)c1ccccc1`, the cell number change was -54.8%. In addition, under setting [1], the AC50 was 18.4 µM [falling, single point]. In addition, the AC50 under setting [2] is 0.13 µM [falling, full curve, poor fit].
Regarding `O=C(Nc1nnc(S(=O)(=O)N2CCCCCC2)s1)c1ccccc1Cl`, the cell number change amounted to 9.28%. The AC50 under setting [2] was 6.51 µM [falling, single point].
Consider `Cc1cccc(NC(=S)NC(=O)C2CC2)c1`, for which the cell number change was -5.78%. The AC50 under setting [2] was 2.31 µM [falling, full curve, poor fit].
Consider `O=C(COC(=O)C12CC3CC(CC(Br)(C3)C1)C2)Nc1cccnc1Cl`, for which the cell number change was found to be 45.1%. The AC50 under setting [1] was 0.82 µM [rising, full curve]. Besides, under setting [2], the AC50 is 5.8 µM [rising, partial curve].
Take `COc1ccc(N2C(=O)C3CCCN3C2c2cccc(OC)c2)cc1` (centres undefined): the cell number change was determined as 10.8%.
As to `COc1cc2c(cc1OC)C(COc1ccccc1OC)N(C(=O)C(C)(C)C)CC2` (centres undefined), the cell number change is -60.4%. The AC50 under setting [1] is 0.326 µM [falling, full curve]. Also, under setting [2], the AC50 is 8.2 µM [falling, partial curve].
Turning to `CC(=O)Nc1ccccc1C(=O)N1CC(C)OC(C)C1` (centres undefined), the cell number change was -16.9%. In addition, the AC50 under setting [2] is 2.59 µM [falling, full curve, poor fit].
In the case of `COc1ccc(C(CNC(=O)c2ccc(S(=O)(=O)Nc3ccccc3F)cc2)N(C)C)cc1` (centres undefined), the cell number change was determined as 1.08%.
For the molecule `COc1cc(C(=S)N(C)C)ccc1O`, the cell number change is -100%. For the same molecule, under setting [1], the AC50 was 25.9 µM [falling, partial curve]. Under setting [2], the AC50 is 23.1 µM [falling, partial curve].
Regarding `NC(=O)C1CCN(Cc2nc3ccccc3c(=O)[nH]2)CC1`, the cell number change was determined as 3.96%. Also, the AC50 under setting [2] is 23.1 µM [falling, partial curve].
For the molecule `Cn1c(C(=O)NCCN2CCc3ccccc3C2)cc2c(=O)[nH]c3ccccc3c21`, the cell number change is -25.7%. The AC50 under setting [2] was 29.1 µM [falling, single point].
Consider `CC1CCC/C(=C\Nc2ccc(C(=O)O)c(O)c2)C1=O` (centres undefined), for which the cell number change is 12.3%.
For `O=C(O)CN(C1CCCCC1)S(=O)(=O)c1ccc(F)cc1`, the cell number change was -26.1%. Further, under setting [1], the AC50 is 1.3 µM [falling, full curve, poor fit]. Also, the AC50 under setting [2] was 0.517 µM [falling, full curve].
On to `COc1ccc(O)c(/C=N/NC(=O)c2ccc(N3CCCC3=O)cc2)c1`, for which the cell number change stood at 6.67%.
Take `CCN1CCN(c2nc3c(c(=O)[nH]c(=O)n3C)n2CCSc2nc3ccccc3s2)CC1`: the AC50 under setting [2] is 2.06 µM [rising, single point].
`CCOC(=O)c1csc(NC(=O)c2ccccc2)n1`: the cell number change is -13%.
On to `COc1ccc(-c2noc(CSc3nnc(Cc4ccccc4)n3-c3ccc(Cl)cc3)n2)cc1`, for which the cell number change is 150%. Moreover, the AC50 under setting [1] is 16.4 µM [rising, partial curve]. Besides, the AC50 under setting [2] was 10.3 µM [rising, partial curve].
Turning to `COc1cc2c(cc1OC)CN(C(=O)c1sc(-c3cnccn3)nc1C)CC2`, the cell number change amounted to 24%. The AC50 under setting [2] is 0.517 µM [rising, partial curve, poor fit].
As to `CC1(C(=O)Nc2cccc(S(=O)(=O)N3CCOCC3)c2)Cc2ccccc2C(=O)O1` (centres undefined), the cell number change is 51.8%.
Take `O=c1c2cc(NC(=S)N3CCCC3)ccc2nc2n1CCCCC2`: the AC50 under setting [1] is 6.51 µM [rising, partial curve, poor fit].
Take `Cc1ccccc1NC(=O)CC(O)(C(F)(F)F)C(F)(F)F`: under setting [1], the AC50 is 1.3 µM [rising, partial curve].
As to `CCCSc1nc(N)c(C#N)c(-c2ccc(C)cc2)c1C#N`, the AC50 under setting [1] was 6.51 µM [rising, single point].
With `Cc1ccccc1NS(=O)(=O)c1cccc(C(=O)Nc2cccc(C(=O)O)c2)c1`, the cell number change amounted to 23.8%.
As for `CCN(Cc1cc(=O)oc2cc(C)ccc12)c1ccccc1`, the cell number change was -15.9%. The AC50 under setting [2] was 29.1 µM [falling, single point].
Regarding `COc1ccc([C@@H]2CC=C(C(=O)O)[C@H](c3ccccc3)N2S(=O)(=O)c2ccccc2C)cc1`, the cell number change worked out at 22%. In addition, the AC50 under setting [2] was 29.1 µM [rising, single point].
As for `Cc1cc(C(F)(F)F)nc(SCC(=O)Nc2c(C)n(C)n(-c3ccccc3)c2=O)n1`, the cell number change was found to be 10.8%. Further, the AC50 under setting [2] was 1.16 µM [falling, single point].
In the case of `CC1CCCC(C)N1/N=C/c1ccccc1C(=O)O` (centres undefined), the cell number change was -98.6%.
On to `CC1Cc2ccccc2N1C(=O)CCNS(=O)(=O)c1cccc2nsnc12` (centres undefined), for which the cell number change is 25.6%. Moreover, the AC50 under setting [2] was 8.2 µM [rising, partial curve, poor fit].
Consider `CC(=O)Nc1ccc(S(=O)(=O)NCc2ccc(C(=O)NCc3ccc(Cl)cc3)cc2)cc1`, for which the cell number change was found to be 47.9%. The AC50 under setting [1] was 8.2 µM [rising, partial curve, poor fit]. Moreover, under setting [2], the AC50 is 6.51 µM [falling, single point].
